{
  "source": "patent US20260000794A1",
  "about": "“IN VIVO TRANSITION METAL DETECTION” (The University of Sydney, priority 2022, published 2026)",
  "test_system": "intact mouse brain (parietal cortex)",
  "experiment": "Quantifying cortical Cu levels in the intact mouse brain with the DIVE multiphoton microscope (FIG. 3)",
  "type": "in vivo",
  "details": "retro-orbital injection; accumulation of Cu-activated F—NpCul-protein complex in brain tissue, real time 3D imaging",
  "note": "Entries after “also recorded” stand apart in the source; their conditions may differ. The name of at least one read-out is uncertain.",
  "data": [
    {"smiles": "CCSCCN(CCSCC)Cc1cn(C(=O)OCCOCCNc2ccc3c4c(cccc24)C(=O)N(CCF)C3=O)cn1", "note": "[F—NpCul]", "values": [
      {"measurement": "blood brain barrier permeability", "result": "readily permeable through the blood brain barrier; also recorded: readily BBB permeable"}
    ]}
  ]
}
